Laboratory results published in PubChem BioAssay AID2685 (National Center for Advancing Translational Sciences (NCATS), 2010).
About 2,100 (0.66%) of roughly 320,000 compounds were called active. This list was built around the results that the source calls inconclusive (neither active nor inactive); the mix of calls is not that of the screen. Calls follow the shape of the dose curve; as a rule, active = well fitted inhibition curve with a large enough effect in the signal ratio, with a control signal flat (not every such curve was filed as active); inconclusive = small, poorly fitted or top-dose-only effect, or effect the other way, or a change in a side signal; inactive = flat fitted curve, though single readings scatter; the % refers to the signal ratio. A potency beside an inconclusive call is a rough fit, not a confirmed value.

assay: qHTS Assay for Lipid Storage Modulators in Drosophila S3 Cells; settings: BODIPY lipid droplet fluorescence, 18-24 h, cells fed with added oleic acid; lipid storage change, negative = inhibition: at 46.1 µM (top of the series) unless noted
Method in brief: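 Drosophila S3 cells loaded with oleic acid (400 uM, as added) and compounds at several concentrations; lipid droplets imaged by 488-nm laser-scanning cytometry, 500–530 nm intensity and object ratio to cell channel. Percent activity normalized to 20 uM Triacsin C.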
% is scaled to controls: 0 for no effect and ±100 for the full control effect; potency is read from the fitted curve at half-maximal effect.

Lipid storage change, negative = inhibition, inconclusive:
CCCCN(C(=O)CCC(=O)Nc1cc(C)on1)C(C(=O)NC1CCCC1)c1ccc(OCC)cc1 (centres undefined) 168%
COC(=O)c1ccc2c(=O)n(CCCCCC(=O)NCc3ccc4c(c3)OCO4)c(=O)[nH]c2c1 -2.27%
Cc1ccc(CN2[C@@H]3c4ccccc4C[C@@H]3OCCS2(=O)=O)cc1 28.8%
Cc1ccc(C)c(N(CC(=O)NC2CCCC2)C(=O)CCC(=O)Nc2cc(C)on2)c1 12.4%
O=C(CN1C(=O)NC2(CCCCCC2)C1=O)N1CCN(c2ccccc2)CC1 -9.75%
CN(c1ccccc1)S(=O)(=O)c1cccc(C(=O)Nc2nccs2)c1 -24.1%
COc1cc(C(=O)NC(c2ccccc2)c2ccccc2)cc(OC)c1C -42.5%
CCN(CCN(C)C)C(=O)Cn1ncc2c1-c1cc(C)ccc1OC2 17.9% [at 9.22 µM]
COc1ccccc1C(=O)Nc1nnc(C)s1 163%
COc1ccc(NC(C)=O)cc1NC(=O)CSc1nnc(-c2cccnc2)n1C 14.8%
COc1ccc(C2=NN(C(=O)c3cccs3)C(c3ccccc3OC)C2)cc1OC (centres undefined) 21.7% [at 9.22 µM]
COc1cnn(-c2ccccc2)c(=O)c1SCc1ccc(Cl)c(Cl)c1 -39.2%
Cc1ccc(/C=N/NC(=O)c2ccc(-n3cnnn3)cc2)cc1 21.4%
C[C@H]1CN=C(Nc2ccccc2)N1CC1CCC1 12.4%
COc1cc([N+](=O)[O-])ccc1NC(=O)CSc1nncn1-c1cccnc1 -25.6%
CN(C)CC1CCCCC1OC(=O)c1ccc(S(=O)(=O)N(C)c2ccccc2)cc1 (centres undefined) 94.5%
O=C(NC1CC2CCCC(C1)N2Cc1ccccc1)c1ccc([N+](=O)[O-])cc1 (centres undefined) 11.5%
CC(C)(C)OC(=O)CN1C(=O)NC2(CCCc3ccccc32)C1=O (centres undefined) 15.2%
C[C@H](N)c1nnc(SCC(N)=O)o1 -10.3%
CCOc1cc(C#N)ccc1OCC(=O)NNC(=O)CC1CCS(=O)(=O)C1 (centres undefined)
CCn1c(SCC(=O)N(C)CC(=O)Nc2ccc(OC)cc2)nnc1-c1ccco1
C/C(=N\NC(=O)Cc1cccn1C)c1cccc2ccccc12 -0.256%
Oc1[nH]c2ccc(Br)cc2c1N=Nc1ccc(F)cc1 -63.8%
O=C(O)c1ccc(-n2c(/C=C/c3cccc([N+](=O)[O-])c3)nc3ccccc3c2=O)cc1 43.6%
CC(/C=N/NC(=O)CSc1ccccn1)=C\c1ccc(C(C)C)cc1 18.4%
O=C(C1CCCN(S(=O)(=O)c2cccnc2)C1)N1CCN(c2ccccn2)CC1 (centres undefined) 0.103%
CCCCC(=O)OCc1c(-c2cccc(OC)c2)ncc2ccccc12 7.68%
CCOC(=O)c1csc(-c2ccc(OC)c(OC)c2)n1 -11%
O=C(NNC(=O)C(O)c1ccccc1)NC1CCCCC1 (centres undefined) -2.49%
COC(=O)C1CCN(C(=O)COC(=O)C2CCN(S(=O)(=O)c3c(Cl)cccc3Cl)CC2)CC1 -24%
CCN(CC(=O)Nc1cc(Cl)ccc1C)C(=O)CCS(=O)(=O)c1ccc(Cl)cc1 -0.561%
COCCNc1oc(COc2cccc(C)c2)nc1C#N 33.3%
CC(C)NC(=O)CSc1nc(N)c(NC(=O)c2ccccc2F)c(=O)[nH]1 33.5%
O=C(CN(C(=O)CNC(=O)c1ccco1)c1ccc(Cl)c(Cl)c1)NC1CCCCC1 -60.3%
CCC(=O)NNc1nc2c(C)c(C)ccc2s1 45.4%
CCOc1cc(/C=N/NC(=O)CSc2cccc3cccnc23)ccc1O -16.6%
CC(=O)NC(Cc1ccc(F)cc1)C(=O)NC1CCN(c2ncccc2[N+](=O)[O-])CC1 (centres undefined) 11.7%

By substructure, the entries above containing an NH in an aromatic ring (3)
Lipid storage change, negative = inhibition, inconclusive:
COC(=O)c1ccc2c(=O)n(CCCCCC(=O)NCc3ccc4c(c3)OCO4)c(=O)[nH]c2c1 -2.27%
Oc1[nH]c2ccc(Br)cc2c1N=Nc1ccc(F)cc1 -63.8%
CC(C)NC(=O)CSc1nc(N)c(NC(=O)c2ccccc2F)c(=O)[nH]1 33.5%

Following part:

Lipid storage change, negative = inhibition, inactive:
CC(C)(C)NC(=O)NC(=O)COC(=O)C1=COCCO1
O=C(COc1ccccc1)Nc1nc(-c2ccc(S(=O)(=O)N3CCOCC3)cc2)cs1
O=C(Nc1cccc(-n2cnnn2)c1)c1cccs1
CC1CCCC(C)N1C(=O)CSc1nnc(NC(=O)c2cccs2)s1 (centres undefined)
Cc1nc2ccccc2n1Cc1ccccc1

Potency, inconclusive:
COc1cc(NS(=O)(=O)c2ccc(NC(=O)COc3ccc(C)cc3C)cc2)nc(OC)n1 4.11 µM [falling, full curve, poor fit]
CCc1nc2c(n1O)CCc1nonc1-2 4.11 µM [falling, full curve, poor fit]
Cc1ccc(C(=O)N/C(=C\c2ccc(-c3cccc([N+](=O)[O-])c3)o2)C(=O)NCCCN(C)C)cc1 0.184 µM [activator, full curve]
COC(=O)Cc1ccc(N(Cc2ccccc2F)S(=O)(=O)c2ccc(C)cc2)cc1 5.8 µM [activator, partial curve]
O=C(CN1CCC(NC(=O)Nc2ccccc2)CC1)Nc1ccccc1F 10.3 µM [activator, partial curve]
CC1CCN(S(=O)(=O)c2ccccc2[N+](=O)[O-])CC1 32.6 µM [falling, single point]
COc1ccc(CC(=O)OCC(=O)N2CCCc3ccccc32)cc1OC 16.4 µM [activator, single point]
Cc1cc(C)c(C(=O)OCCNC(=O)c2cccnc2)cc1C 0.411 µM [activator, full curve]
Cc1ccc(C)c(S(=O)(=O)N2CCN(C(=O)CSc3ccccc3)CC2)c1 2.31 µM [activator, partial curve]
CCCCn1nc2cc(C(=O)NCc3cc(C(F)(F)F)cc(C(F)(F)F)c3)ccc2c1OC 10.3 µM [activator, partial curve]
O=C(NC(=S)NCC1CCCO1)c1ccc(Cl)cc1 (centres undefined) 18.4 µM [activator, partial curve, poor fit]
Cc1ccccc1NC(=O)NCC1CCN(C(=O)OC(C)(C)C)CC1 14.6 µM [falling, single point]
CC(=O)c1ccc(NC(=O)C2CCCN(S(=O)(=O)c3c(C)[nH]c(=O)[nH]c3=O)C2)cc1 (centres undefined) 0.92 µM [falling, full curve]
OC/C(Br)=C(\Br)CO 3.66 µM [activator, single point]
OCCOCCNc1ncnc2c1c(-c1ccccc1)cn2-c1ccccc1 20.6 µM [falling, single point]
CC1CCN(Cc2c(C(=O)N/N=C/c3cc(Cl)ccc3O)nnn2-c2nonc2N)CC1 29.1 µM [activator, single point]
COc1cccc(C(=O)NNC(=O)C(=O)Nc2cccc(Cl)c2C)c1 18.4 µM [activator, single point]
O=c1c2[nH]c3ccccc3c2ncn1CCN1CCCCC1 2.59 µM [falling, full curve, poor fit]
COc1ccc(CC(=O)Nc2nc3n(n2)C(c2ccccc2)CC(=O)N3)cc1OC (centres undefined) 29.1 µM [falling, single point]
Clc1ccccc1OCc1nc(-c2ccc(Br)o2)no1 0.58 µM [activator, full curve, poor fit]
O=C(CN(CCc1ccccc1)S(=O)(=O)c1ccc(Cl)cc1)N/N=C/c1ccc2c(c1)OCO2 1.3 µM [activator, full curve, poor fit]
O=C(NCC1CCCO1)c1c(O)nc2sccn2c1=O (centres undefined) 6.51 µM [activator, partial curve, poor fit]
O=C(c1ccncc1)N(Cc1ccccc1)Cc1nc2ccccc2c(=O)[nH]1 2.31 µM [falling, partial curve]
COc1ccc(OCCOCCN2CCN(C)CC2)cc1 29.1 µM [activator, single point]
CCN(CC)c1ccc(NC(=O)c2ccc(=O)[nH]c2)cc1S(=O)(=O)Nc1ccccc1OC 3.26 µM [activator, single point]
Cc1ccc(C)c(S(=O)(=O)NCc2ccc(C(=O)N3CCOCC3)cc2)c1 29.1 µM [falling, single point]
COC(=O)c1c(C)[nH]c(C(=O)/C=C/c2ccccc2Cl)c1C 0.291 µM [activator, full curve, poor fit]
Cc1noc(C)c1C(=O)Nc1ccc(-c2nnc3n2CCCCC3)cc1 0.92 µM [falling, full curve, poor fit]
COc1ccc(OC)c(N/C=C2/CCCCC2=O)c1 29.1 µM [activator, single point]
O=C(COc1ccc(S(=O)(=O)N2CCOCC2)cc1)Nc1ccc(Cl)c(C(F)(F)F)c1 7.31 µM [activator, partial curve, poor fit]

Potency, active:
Cc1ccc(N(CC(O)CN(C)C)S(=O)(=O)c2ccccc2)cc1 (centres undefined) 5.17 µM
CC1(C)CC2CC(C)(CN2C(=O)c2cc(-c3ccc(O)cc3)on2)C1 (centres undefined) 0.92 µM
